# Laboratory results published in the supplement of paper PMC8728848.
# Some of the results follow.
# B1: CD4 (Rattus norvegicus), P05540 (protein)
# chain: MCRGFSFRHLLPLLLLQLSKLLVVTQGSTSITAYKSEGESAEFSFPLNLGEESLQGELRWKAEKAPSSQSWITFSLKNQKVSVQKSTSNPKFQLSETLPLTLQIPQVSLQFAGSGNLTLTLDRGILYQEVNLVVMKVTQPDSNTLTCEVMGPTSPKMRLILKQENQEARVSRQEKVIQVQAPEAGVWQCLLSEGEEVKMDSKIQVLSKGLNSGGGSGGGTGGGDLAPQMLRELQETNAALQDVRELLRQQVKEITFLKNTVMECDACGLDRNLPPLAPLGPHPETLVKVKDAEDQLGARVGYIELDLNSGKILESFRPEERFPMMSTFKVLLCGAVLSRIDAGQEQLGRRIHYSQNDLVEYSPVTEKHLTDGMTVRELCSAAITMSDNTAANLLLTTIGGPKELTAFLHNMGDHVTRLDRWEPELNEAIPNDERDTTMPVAMATTLRKLLTGELLTLASRQQLIDWMEADKVAGPLLRSALPAGWFIADKSGAGERGSRGIIAALGPDGKPSRIVVIYTTGSQATMDERNRQIAEIGASLIKHW
# Tests used:
# Assay in all cases: glycan array binding signal (z-score within array); higher = stronger binding
# Details in all cases: glycan notation: IUPAC condensed, linker removed
# Gal3S(b1-4)Glc = molecular target: Gal3S(b1-4)Glc
# Method in brief: (§1)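 The binding signal is a Z-score computed within each array and averaged over linkers. Arrays of the same protein sequence at different concentrations or buffers were also averaged together. Data originate from 3228 arrays in the Consortium for Functional Glycomics database, kept only where the protein sequence was available.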
# Gal3S(b1-4)Glc6S = molecular target: Gal3S(b1-4)Glc6S
# Method in brief: as §1
# Gal3S(b1-4)GlcNAc = molecular target: Gal3S(b1-4)GlcNAc
# Method in brief: as §1
# [1] = molecular target: Gal3S(b1-4)[Fuc(a1-3)]Glc6S
# Method in brief: as §1
# [2] = molecular target: Gal3S(b1-4)[Fuc(a1-3)]GlcNAc
# Method in brief: as §1
# [3] = molecular target: Gal3S(b1-4)[Fuc(a1-3)]GlcNAc6S
# Method in brief: as §1
# Gal3S4S(b1-4)GlcNAc = molecular target: Gal3S4S(b1-4)GlcNAc
# Method in brief: as §1
# Gal3S6S(b1-4)GlcNAc = molecular target: Gal3S6S(b1-4)GlcNAc
# Method in brief: as §1
# Gal3S6S(b1-4)GlcNAc6S = molecular target: Gal3S6S(b1-4)GlcNAc6S
# Method in brief: as §1
# Gal4S(b1-4)GlcNAc = molecular target: Gal4S(b1-4)GlcNAc
# Method in brief: as §1
# Gal4S6S(b1-4)GlcNAc = molecular target: Gal4S6S(b1-4)GlcNAc
# Method in brief: as §1
# Gal6P(b1-4)GlcNAc = molecular target: Gal6P(b1-4)GlcNAc
# Method in brief: as §1
# Gal6S(b1-3)GlcNAc = molecular target: Gal6S(b1-3)GlcNAc
# Method in brief: as §1
# Gal6S(b1-3)GlcNAc6S = molecular target: Gal6S(b1-3)GlcNAc6S
# Method in brief: as §1
# Gal6S(b1-4)Glc = molecular target: Gal6S(b1-4)Glc
# Method in brief: as §1
# Gal6S(b1-4)Glc6S = molecular target: Gal6S(b1-4)Glc6S
# Method in brief: as §1
# Gal6S(b1-4)GlcNAc = molecular target: Gal6S(b1-4)GlcNAc
# Method in brief: as §1
# Gal6S(b1-4)GlcNAc6S = molecular target: Gal6S(b1-4)GlcNAc6S
# Method in brief: as §1
# GalNAc(a1-3)Gal = molecular target: GalNAc(a1-3)Gal
# Method in brief: as §1
# GalNAc(a1-3)GalNAc = molecular target: GalNAc(a1-3)GalNAc
# Method in brief: as §1
# [4] = molecular target: GalNAc(a1-3)GalNAc(a1-3)Gal(a1-4)Gal(b1-4)GlcNAc
# Method in brief: as §1
# [5] = molecular target: GalNAc(a1-3)GalNAc(b1-3)Gal(a1-4)Gal(b1-4)Glc
# Method in brief: as §1
# GalNAc(b1-3)Gal = molecular target: GalNAc(b1-3)Gal
# Method in brief: as §1
# [6] = molecular target: GalNAc(b1-3)Gal(a1-4)Gal(b1-4)GlcNAc
# Method in brief: as §1
# [7] = molecular target: GalNAc(b1-3)Gal(a1-4)Gal(b1-4)GlcNAc(b1-3)Gal(b1-4)Glc
# Method in brief: as §1
# [8] = molecular target: GalNAc(b1-3)Gal(a1-6)Gal(b1-4)Glc
# Method in brief: as §1
# GalNAc(b1-3)GalNAc = molecular target: GalNAc(b1-3)GalNAc
# Method in brief: as §1
# GalNAc(b1-3)GlcNAc = molecular target: GalNAc(b1-3)GlcNAc
# Method in brief: as §1
# GalNAc(b1-4)Gal(b1-4)Glc = molecular target: GalNAc(b1-4)Gal(b1-4)Glc
# Method in brief: as §1
# GalNAc(b1-4)GlcNAc = molecular target: GalNAc(b1-4)GlcNAc
# Method in brief: as §1
binder,measurement,setting,value
B1,glycan array binding signal (z-score),Gal3S(b1-4)Glc,0.064
same,glycan array binding signal (z-score),Gal3S(b1-4)Glc6S,0.805
same,glycan array binding signal (z-score),Gal3S(b1-4)GlcNAc,-0.806
same,glycan array binding signal (z-score),[1],3.99
same,glycan array binding signal (z-score),[2],0.693
same,glycan array binding signal (z-score),[3],1.69
same,glycan array binding signal (z-score),Gal3S4S(b1-4)GlcNAc,-0.441
same,glycan array binding signal (z-score),Gal3S6S(b1-4)GlcNAc,-0.623
same,glycan array binding signal (z-score),Gal3S6S(b1-4)GlcNAc6S,-0.506
same,glycan array binding signal (z-score),Gal4S(b1-4)GlcNAc,-0.575
same,glycan array binding signal (z-score),Gal4S6S(b1-4)GlcNAc,1.37
same,glycan array binding signal (z-score),Gal6P(b1-4)GlcNAc,-1.27
same,glycan array binding signal (z-score),Gal6S(b1-3)GlcNAc,-0.837
same,glycan array binding signal (z-score),Gal6S(b1-3)GlcNAc6S,-0.074
same,glycan array binding signal (z-score),Gal6S(b1-4)Glc,1.31
same,glycan array binding signal (z-score),Gal6S(b1-4)Glc6S,0.205
same,glycan array binding signal (z-score),Gal6S(b1-4)GlcNAc,0.34
same,glycan array binding signal (z-score),Gal6S(b1-4)GlcNAc6S,-1.7
same,glycan array binding signal (z-score),GalNAc(a1-3)Gal,-0.574
same,glycan array binding signal (z-score),GalNAc(a1-3)GalNAc,-0.61
same,glycan array binding signal (z-score),[4],-1.17
same,glycan array binding signal (z-score),[5],1.32
same,glycan array binding signal (z-score),GalNAc(b1-3)Gal,0.696
same,glycan array binding signal (z-score),[6],0.189
same,glycan array binding signal (z-score),[7],0.231
same,glycan array binding signal (z-score),[8],0.097
same,glycan array binding signal (z-score),GalNAc(b1-3)GalNAc,-0.004
same,glycan array binding signal (z-score),GalNAc(b1-3)GlcNAc,0.701
same,glycan array binding signal (z-score),GalNAc(b1-4)Gal(b1-4)Glc,-0.645
same,glycan array binding signal (z-score),GalNAc(b1-4)GlcNAc,0.66

# Reprinted from the results shown (2 entries):
binder,measurement,setting,value
B1,glycan array binding signal (z-score),Gal6S(b1-3)GlcNAc6S,-0.074
same,glycan array binding signal (z-score),Gal6S(b1-4)Glc,1.31
